Laboratory results: paper doi:10.1101/659573v1 (bioRxiv, 2019)

Tested on: 8% mucin
Experiment: Phage screening assay through mucin, sequencing of clones
Conditions: after three rounds of screening against 8% mucin; DNA sequencing of 13 clones

Row | Substance | frequency among sequenced clones
1 | NTGSPYE | 1/13
2 | TVRTSAD | 4/13
